Results on 2 molecules are retold here after CN117069840A.

Sequences of proteins named here, by UniProt entry; tags and fusion partners are left off. Residues count along the entry.
UniProt Q9HBE4, residues 30-162: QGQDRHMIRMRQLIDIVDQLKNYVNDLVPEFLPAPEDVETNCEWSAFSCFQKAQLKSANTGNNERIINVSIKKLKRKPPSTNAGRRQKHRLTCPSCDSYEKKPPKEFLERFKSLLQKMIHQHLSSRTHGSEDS

No constants are given. Whether binding was seen depends on the method and setting. Some entries that bind do so weakly or less than the wild type.

Test [1] concerns the target 人IL-21蛋白 (human) (UniProt Q9HBE4). Nature of the test: indirect ELISA, IL-21 coated at 1 μg/mL, hybridoma supernatant.
The target is the same in test [2]. As to the kind of experiment: double-antibody sandwich ELISA paired with 13A6G6. A general note: An ELISA detects its analyte on a solid surface through an enzyme-linked reagent.
Test [3] shares this target. Nature of the test: double-antibody sandwich ELISA paired with 3G6D7.

B1: 抗体3G6D7 (antibody, V domains shown)
VH: EIQLQQSGPELVKPGASVKVSCKASGYGFTSYNMNWVKQSHGKSLEWIGYIDPYNGGSGYNQKFKGKATLTVDKSSSTAYMHLISLTSDDSAVYYCARGDYDGGYYGMDYWGQGTSVTVSS
VL: DILLTQSPAILSVSPGESVSFSCRASQSVGTSIHWFQQRTNGSPRLLIKYASESISGIPSRFSGSGSGTDFTLIINSVESEDIADYYCQQSNGWPFTFGSGTKLEIK
Take B1: the binding result with 人IL-21蛋白 (human) [1] and in the test with 人IL-21蛋白 (human) [2] was “binds” in each case.

B2: 抗体13A6G6 (antibody, V domains shown)
VH: EVKLEESGGGLVQPGGSTKLSCAASGFTFSDAWMNWVRQSPEKGLEWIAEIRTKTSNHAAYYAASVKGRFTISRDDSKSSVYLQMNSLRPEDTGIYYCTRFDYWGQGTTLTVSS
VL: DVQITQSPSYLAASPGETITINCRASKNINKHLAWYHDKPGKTNKLLIYSGSTLQSGTPSRFSGSGSGTDFTLTISSLEPEDFAVYYCQQHNEYPYTFGGGTKLAIK
B2: the binding result in the test with 人IL-21蛋白 (human) [3] and with 人IL-21蛋白 (human) [1] was “binds” throughout.
